No constants are given. Whether binding was seen depends on the method and setting. Binding seen in cells or lysates may run through a third protein. Some binding calls cover weakened binding; strength is not graded here.
Legend:
[1] = target: beta4 integrin (human) (UniProt P16144); experiment: co-immunoprecipitation from surface-biotinylated HaCaT cells with anti-beta4 antibodies
[2] = target: beta4 integrin (human) (UniProt P16144); experiment: co-immunoprecipitation from surface-biotinylated cells
[3] = target: beta4 integrin (human) (UniProt P16144); experiment: co-immunoprecipitation (FIG. 3), as restated in the discussion
[4] = target: beta4 integrin (human) (UniProt P16144); experiment: co-immunoprecipitation with antibody A9; 'alpha4' is read as beta4

The chains behind the UniProt entries cited, without tags or fusion partners. Residues count along the entry.
UniProt P16144, residues 28-1822: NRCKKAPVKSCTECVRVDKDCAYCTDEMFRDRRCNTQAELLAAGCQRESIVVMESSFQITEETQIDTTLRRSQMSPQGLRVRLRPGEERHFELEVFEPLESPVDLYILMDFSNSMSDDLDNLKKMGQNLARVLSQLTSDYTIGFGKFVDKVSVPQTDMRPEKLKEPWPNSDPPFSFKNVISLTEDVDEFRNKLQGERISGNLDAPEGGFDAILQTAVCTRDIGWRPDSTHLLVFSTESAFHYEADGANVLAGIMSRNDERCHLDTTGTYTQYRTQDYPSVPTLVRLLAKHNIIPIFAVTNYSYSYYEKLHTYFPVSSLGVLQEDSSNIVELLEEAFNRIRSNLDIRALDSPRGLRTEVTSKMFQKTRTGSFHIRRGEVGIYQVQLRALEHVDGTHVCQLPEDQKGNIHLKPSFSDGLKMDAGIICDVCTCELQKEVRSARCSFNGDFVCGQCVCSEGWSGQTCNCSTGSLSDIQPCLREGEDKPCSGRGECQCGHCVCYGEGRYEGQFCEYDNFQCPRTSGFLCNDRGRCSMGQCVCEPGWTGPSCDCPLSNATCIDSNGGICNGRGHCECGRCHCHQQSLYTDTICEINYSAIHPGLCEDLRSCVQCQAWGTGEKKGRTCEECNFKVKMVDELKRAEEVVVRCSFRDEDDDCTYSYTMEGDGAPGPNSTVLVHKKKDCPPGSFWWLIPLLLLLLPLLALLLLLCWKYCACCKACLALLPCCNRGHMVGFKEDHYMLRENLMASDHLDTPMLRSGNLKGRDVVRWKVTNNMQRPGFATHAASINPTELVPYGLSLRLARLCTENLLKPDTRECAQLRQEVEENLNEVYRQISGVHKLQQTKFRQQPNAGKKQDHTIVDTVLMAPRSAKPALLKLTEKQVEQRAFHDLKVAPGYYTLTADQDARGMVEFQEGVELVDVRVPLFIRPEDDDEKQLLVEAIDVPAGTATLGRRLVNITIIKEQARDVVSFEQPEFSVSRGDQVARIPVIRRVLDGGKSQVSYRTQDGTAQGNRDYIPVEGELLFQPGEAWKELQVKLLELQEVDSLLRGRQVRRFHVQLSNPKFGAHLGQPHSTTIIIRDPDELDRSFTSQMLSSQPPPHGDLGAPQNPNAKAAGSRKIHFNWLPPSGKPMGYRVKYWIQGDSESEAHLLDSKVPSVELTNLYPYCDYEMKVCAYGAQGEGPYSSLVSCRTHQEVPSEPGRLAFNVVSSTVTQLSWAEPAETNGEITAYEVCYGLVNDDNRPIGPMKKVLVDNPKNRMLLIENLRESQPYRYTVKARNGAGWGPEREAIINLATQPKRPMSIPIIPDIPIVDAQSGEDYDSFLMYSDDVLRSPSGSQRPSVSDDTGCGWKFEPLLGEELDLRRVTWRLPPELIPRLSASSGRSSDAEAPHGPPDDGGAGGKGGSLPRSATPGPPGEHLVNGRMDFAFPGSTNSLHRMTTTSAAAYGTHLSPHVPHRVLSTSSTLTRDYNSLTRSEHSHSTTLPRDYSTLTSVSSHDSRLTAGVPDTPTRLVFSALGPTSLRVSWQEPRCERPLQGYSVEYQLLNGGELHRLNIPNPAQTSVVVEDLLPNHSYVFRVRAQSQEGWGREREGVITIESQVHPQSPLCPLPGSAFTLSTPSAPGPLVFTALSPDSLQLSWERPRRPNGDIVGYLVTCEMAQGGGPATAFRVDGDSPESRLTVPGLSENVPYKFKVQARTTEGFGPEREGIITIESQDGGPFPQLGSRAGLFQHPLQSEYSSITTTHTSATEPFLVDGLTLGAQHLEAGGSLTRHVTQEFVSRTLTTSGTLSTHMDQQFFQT

binding [1]: binds | binding [2]: binds | binding [3]: binds | binding [4]: binds
B1: alpha6p integrin (70-kDa N-terminally truncated variant of human alpha6 integrin) (receptor)
chain: RVNSLPEVLPILNSDEPKTAHIDVHFLKEGCGDDNVCNSNLKLEYKFCTREGNQDKFSYLPIQKGVPELVLKDQKDIALEITVTNSPSNPRNPTKDGDDAHEAKLIATFPDTLTYSAYRELRAFPEKQLSCVANQNGSQADCELGNPFKRNSNVTFYLVLSTTEVTFDTPYLDINLKLETTSNQDNLAPITAKAKVVIELLLSVSGVAKPSQVYFGGTVVGEQAMKSEDEVGSLIEYEFRVINLGKPLTNLGTATLNIQWPKEISNGKWLLYLVKVESKGLEKVTCEPQKEINSLNLTESHNSRKKREITEKQIDDNRKFSLFAERKYQTLNCSVNVNCVNIRCPLRGLDSKASLILRSRLWNSTFLEEYSKLNYLDILMRAFIDVTAAAENIRLPNAGTQVRVTVFPSKTVAQYSGVPWWIILVAILAGILMLALLVFILWKCGFFKRNKKDHYDATYHKAEIHAQPSDKERLTSDA

— patent US20040038344A1
